Assay results taken from the supplement of paper PMC10849652.
The other results are listed elsewhere or left out.

By UniProt entry, the sequences of proteins in these tests, tags left out. Where a name states a change or a piece, a line headed by the entry shows the natural chain unless it says otherwise.
UniProt Q9Y3E5: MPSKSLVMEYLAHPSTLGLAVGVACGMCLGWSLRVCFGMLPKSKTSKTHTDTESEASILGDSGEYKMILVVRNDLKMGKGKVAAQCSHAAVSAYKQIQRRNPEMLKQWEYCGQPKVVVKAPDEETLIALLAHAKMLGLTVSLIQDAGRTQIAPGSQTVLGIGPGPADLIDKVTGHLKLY
UniProt P06454: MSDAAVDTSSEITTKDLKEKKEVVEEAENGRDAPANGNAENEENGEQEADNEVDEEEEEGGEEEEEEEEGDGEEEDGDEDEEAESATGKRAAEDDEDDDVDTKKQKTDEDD
UniProt P23219, whole entry, looked up: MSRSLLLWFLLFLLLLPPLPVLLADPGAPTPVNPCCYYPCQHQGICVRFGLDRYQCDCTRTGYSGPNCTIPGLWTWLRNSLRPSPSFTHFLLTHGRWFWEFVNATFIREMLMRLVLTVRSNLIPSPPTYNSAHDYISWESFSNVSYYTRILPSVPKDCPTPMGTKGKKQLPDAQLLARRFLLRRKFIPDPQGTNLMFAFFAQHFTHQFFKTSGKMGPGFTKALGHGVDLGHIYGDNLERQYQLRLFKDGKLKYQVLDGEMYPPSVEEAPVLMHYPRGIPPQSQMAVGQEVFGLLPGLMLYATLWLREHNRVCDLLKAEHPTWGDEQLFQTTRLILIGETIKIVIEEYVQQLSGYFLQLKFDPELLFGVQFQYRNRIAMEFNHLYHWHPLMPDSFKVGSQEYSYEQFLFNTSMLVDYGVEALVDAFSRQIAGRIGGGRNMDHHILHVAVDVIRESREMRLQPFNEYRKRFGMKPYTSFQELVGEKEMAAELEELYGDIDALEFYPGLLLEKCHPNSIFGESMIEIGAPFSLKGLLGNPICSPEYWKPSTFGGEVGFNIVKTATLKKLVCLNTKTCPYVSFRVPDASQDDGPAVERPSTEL
UniProt O75475: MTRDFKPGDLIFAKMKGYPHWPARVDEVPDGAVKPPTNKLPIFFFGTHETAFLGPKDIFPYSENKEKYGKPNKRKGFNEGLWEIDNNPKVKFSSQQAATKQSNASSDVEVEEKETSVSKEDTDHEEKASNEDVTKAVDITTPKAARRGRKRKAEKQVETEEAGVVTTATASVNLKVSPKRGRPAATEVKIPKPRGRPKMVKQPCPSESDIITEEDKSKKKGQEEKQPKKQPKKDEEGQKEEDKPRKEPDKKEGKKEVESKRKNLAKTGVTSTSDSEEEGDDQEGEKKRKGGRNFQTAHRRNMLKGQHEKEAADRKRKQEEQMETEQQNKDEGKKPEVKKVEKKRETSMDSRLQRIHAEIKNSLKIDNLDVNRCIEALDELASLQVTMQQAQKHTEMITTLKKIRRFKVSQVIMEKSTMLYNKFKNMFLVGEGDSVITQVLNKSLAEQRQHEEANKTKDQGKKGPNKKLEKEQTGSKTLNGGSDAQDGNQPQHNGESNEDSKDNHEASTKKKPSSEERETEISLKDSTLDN
UniProt P49721: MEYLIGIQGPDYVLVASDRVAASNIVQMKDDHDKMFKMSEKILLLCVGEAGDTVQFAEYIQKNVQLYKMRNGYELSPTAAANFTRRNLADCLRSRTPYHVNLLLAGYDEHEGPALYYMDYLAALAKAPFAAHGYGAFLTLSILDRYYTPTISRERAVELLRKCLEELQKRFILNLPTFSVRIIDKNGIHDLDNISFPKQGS
UniProt O00487, whole entry, looked up: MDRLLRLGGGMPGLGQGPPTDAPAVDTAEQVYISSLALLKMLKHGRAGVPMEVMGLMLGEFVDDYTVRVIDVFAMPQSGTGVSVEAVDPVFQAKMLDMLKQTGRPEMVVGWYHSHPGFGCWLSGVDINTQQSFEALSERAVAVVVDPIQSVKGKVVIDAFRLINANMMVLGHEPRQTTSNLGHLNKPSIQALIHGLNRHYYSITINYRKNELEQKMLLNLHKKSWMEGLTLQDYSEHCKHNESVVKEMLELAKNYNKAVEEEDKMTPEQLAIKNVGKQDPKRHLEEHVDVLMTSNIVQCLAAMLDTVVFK
UniProt O43242, whole entry, looked up: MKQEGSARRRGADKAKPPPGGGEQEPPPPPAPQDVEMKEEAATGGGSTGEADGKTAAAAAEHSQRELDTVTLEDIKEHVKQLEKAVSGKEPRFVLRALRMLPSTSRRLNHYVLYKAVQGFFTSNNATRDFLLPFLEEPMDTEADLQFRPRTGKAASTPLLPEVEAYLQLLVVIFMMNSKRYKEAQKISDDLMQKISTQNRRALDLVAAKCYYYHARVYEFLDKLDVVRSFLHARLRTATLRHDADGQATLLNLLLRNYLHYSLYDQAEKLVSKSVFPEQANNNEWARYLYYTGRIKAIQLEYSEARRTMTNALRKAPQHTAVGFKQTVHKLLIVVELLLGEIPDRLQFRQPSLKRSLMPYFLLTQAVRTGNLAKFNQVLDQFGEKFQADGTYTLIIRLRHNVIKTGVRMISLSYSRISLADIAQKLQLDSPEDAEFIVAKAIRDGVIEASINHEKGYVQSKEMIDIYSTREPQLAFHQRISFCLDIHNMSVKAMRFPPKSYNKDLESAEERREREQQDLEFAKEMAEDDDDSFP
UniProt Q8WUY3: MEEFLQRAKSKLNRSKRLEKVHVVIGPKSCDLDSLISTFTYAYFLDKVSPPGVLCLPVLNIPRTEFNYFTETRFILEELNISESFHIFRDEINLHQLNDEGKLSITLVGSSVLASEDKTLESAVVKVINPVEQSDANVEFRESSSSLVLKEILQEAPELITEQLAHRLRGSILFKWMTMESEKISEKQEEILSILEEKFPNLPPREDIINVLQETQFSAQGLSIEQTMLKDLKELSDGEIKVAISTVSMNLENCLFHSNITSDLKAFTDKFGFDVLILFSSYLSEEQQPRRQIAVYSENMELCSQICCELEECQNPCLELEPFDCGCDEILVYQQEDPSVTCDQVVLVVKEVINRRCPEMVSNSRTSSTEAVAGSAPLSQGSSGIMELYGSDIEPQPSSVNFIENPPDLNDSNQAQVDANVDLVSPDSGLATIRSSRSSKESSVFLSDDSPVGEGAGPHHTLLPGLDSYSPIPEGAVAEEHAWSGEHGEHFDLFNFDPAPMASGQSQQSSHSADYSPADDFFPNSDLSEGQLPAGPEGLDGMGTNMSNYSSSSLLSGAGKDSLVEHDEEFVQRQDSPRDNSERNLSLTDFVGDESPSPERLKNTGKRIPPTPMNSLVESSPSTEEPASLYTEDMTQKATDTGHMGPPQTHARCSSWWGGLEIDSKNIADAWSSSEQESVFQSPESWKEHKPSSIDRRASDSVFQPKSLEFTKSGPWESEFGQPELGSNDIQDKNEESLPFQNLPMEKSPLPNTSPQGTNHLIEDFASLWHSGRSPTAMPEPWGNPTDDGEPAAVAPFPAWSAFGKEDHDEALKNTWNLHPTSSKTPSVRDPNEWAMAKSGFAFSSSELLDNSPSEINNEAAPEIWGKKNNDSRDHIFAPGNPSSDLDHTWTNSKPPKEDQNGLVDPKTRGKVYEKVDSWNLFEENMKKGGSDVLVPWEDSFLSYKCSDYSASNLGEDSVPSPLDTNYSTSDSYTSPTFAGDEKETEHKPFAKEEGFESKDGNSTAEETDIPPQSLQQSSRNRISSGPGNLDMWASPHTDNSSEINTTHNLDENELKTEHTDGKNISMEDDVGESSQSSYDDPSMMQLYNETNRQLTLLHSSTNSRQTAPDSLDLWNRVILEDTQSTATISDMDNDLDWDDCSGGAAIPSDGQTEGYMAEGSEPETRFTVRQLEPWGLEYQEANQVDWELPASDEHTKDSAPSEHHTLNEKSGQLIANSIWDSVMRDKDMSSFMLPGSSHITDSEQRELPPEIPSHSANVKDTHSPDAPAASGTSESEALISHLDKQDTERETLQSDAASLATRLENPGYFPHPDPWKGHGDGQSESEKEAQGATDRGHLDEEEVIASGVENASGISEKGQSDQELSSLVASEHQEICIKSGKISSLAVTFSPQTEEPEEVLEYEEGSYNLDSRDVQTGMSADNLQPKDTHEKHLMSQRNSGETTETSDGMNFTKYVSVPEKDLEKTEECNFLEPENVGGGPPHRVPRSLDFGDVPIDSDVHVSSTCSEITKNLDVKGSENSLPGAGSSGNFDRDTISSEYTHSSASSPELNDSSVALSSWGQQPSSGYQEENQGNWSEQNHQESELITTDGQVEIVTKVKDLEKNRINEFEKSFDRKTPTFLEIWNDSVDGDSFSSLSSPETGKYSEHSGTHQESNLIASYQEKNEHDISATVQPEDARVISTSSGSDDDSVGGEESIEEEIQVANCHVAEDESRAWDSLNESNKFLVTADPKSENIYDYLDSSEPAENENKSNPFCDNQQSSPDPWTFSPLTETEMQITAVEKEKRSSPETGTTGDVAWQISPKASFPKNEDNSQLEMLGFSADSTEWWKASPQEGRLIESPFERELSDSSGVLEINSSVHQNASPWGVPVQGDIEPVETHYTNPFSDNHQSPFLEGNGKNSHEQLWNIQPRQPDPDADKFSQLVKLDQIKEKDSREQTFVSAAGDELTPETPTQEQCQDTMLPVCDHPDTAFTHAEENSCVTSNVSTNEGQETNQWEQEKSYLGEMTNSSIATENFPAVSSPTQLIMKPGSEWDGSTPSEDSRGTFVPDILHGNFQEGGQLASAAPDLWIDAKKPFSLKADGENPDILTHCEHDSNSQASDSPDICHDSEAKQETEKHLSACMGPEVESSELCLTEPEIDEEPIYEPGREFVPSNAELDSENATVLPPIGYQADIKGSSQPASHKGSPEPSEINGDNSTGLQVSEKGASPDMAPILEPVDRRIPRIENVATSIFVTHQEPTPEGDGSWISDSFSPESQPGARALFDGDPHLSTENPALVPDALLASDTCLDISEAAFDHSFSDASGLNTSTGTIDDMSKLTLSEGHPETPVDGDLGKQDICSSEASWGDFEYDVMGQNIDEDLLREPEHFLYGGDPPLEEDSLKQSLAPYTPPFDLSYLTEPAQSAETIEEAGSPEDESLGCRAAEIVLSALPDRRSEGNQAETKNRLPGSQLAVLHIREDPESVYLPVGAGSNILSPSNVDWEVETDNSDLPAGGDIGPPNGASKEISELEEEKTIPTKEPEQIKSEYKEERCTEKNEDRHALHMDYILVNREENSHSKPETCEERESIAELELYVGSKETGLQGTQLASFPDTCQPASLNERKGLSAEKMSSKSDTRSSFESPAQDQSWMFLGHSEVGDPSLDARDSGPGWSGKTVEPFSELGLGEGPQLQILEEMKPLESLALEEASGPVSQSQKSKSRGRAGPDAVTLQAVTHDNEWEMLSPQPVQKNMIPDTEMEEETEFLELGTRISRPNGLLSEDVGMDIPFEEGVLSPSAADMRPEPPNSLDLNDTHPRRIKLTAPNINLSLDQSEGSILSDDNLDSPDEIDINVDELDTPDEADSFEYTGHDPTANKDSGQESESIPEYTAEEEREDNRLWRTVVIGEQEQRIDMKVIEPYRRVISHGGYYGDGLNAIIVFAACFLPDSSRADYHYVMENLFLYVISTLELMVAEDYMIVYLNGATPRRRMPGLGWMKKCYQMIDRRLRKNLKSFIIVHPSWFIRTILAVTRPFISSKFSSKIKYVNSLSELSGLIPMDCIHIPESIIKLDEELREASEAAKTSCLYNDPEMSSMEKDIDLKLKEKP
UniProt Q5JS54: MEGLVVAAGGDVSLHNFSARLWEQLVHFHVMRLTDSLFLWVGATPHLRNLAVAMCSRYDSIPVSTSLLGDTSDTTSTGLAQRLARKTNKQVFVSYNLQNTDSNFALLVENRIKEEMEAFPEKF
UniProt P55036: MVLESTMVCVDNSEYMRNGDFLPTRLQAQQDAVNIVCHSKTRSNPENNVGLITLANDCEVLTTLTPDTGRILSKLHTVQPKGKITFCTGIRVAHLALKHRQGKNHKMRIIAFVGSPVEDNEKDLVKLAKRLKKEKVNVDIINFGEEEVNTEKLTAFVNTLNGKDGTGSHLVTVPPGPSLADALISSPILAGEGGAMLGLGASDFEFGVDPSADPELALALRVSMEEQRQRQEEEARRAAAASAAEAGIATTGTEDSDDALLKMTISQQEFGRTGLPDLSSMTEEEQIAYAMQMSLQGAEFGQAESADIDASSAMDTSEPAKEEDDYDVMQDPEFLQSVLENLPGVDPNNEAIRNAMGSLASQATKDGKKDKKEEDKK
UniProt P07602: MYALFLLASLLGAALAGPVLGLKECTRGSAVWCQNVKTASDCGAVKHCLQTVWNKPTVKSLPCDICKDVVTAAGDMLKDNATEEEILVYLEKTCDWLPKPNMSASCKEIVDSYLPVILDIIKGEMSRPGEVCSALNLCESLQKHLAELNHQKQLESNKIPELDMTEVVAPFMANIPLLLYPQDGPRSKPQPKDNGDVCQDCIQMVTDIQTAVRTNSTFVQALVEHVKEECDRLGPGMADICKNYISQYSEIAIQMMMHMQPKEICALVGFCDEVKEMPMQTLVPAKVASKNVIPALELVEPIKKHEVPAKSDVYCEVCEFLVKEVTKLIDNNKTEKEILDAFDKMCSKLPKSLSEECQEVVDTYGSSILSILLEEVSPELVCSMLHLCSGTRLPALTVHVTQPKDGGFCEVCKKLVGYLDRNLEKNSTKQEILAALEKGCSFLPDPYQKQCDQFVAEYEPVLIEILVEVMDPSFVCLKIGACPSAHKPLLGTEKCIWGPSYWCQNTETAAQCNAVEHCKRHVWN

Tests used:
Assay in all cases: log2 fold change, soluble protein after heating vs DMSO (PISA); higher = thermal stabilisation; K562 lysate, 10 uM; active = over 0.2 and 3.5 SD of the protein, either way, in both replicates (recomputed)
nilotinib = compound: Cc1cn(-c2cc(NC(=O)c3ccc(C)c(Nc4nccc(-c5cccnc5)n4)c3)cc(C(F)(F)F)c2)cn1 [nilotinib]
How it was run: (§1)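 K562 pellets were dounce-homogenised in PBS pH 7.4 with 1 mM MgCl2, and the crude extract at 1 mg/mL protein was treated with 10 μM compound for 30 min. Aliquots were heated for 3 min across 48°C-58°C, pooled, and brought to 0.5% NP-40 at 4°C; soluble protein was the supernatant after 21,000xg for 90 min. Soluble protein was quantified by TMTpro 16plex LC-MS/MS with channel sums equalised, and reported as log2 fold change in thermal stability against DMSO controls, with values from duplicates.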

[1] = compound: Cc1nc(Nc2n[nH]c3c2CN(C(=O)N[C@H](CN(C)C)c2ccccc2)C3(C)C)c2sccc2n1
How it was run: as §1

dasatinib = compound: Cc1nc(Nc2ncc(C(=O)Nc3c(C)cccc3Cl)s2)cc(N2CCN(CCO)CC2)n1 [dasatinib]
How it was run: as §1

[2] = compound: Cc1ncc(-c2ccnc(Nc3ccc(S(C)(=O)=O)cc3)n2)n1C(C)C
How it was run: as §1

[3] = compound: Cn1cc(-c2ccc3c(c2)CCN3C(=O)Cc2cccc(C(F)(F)F)c2)c2c(N)ncnc21
How it was run: as §1

quisinostat = compound: Cn1cc(CNCC2CCN(c3ncc(C(=O)NO)cn3)CC2)c2ccccc21 [quisinostat]
How it was run: as §1

tipifarnib = compound: Cn1cncc1[C@@](N)(c1ccc(Cl)cc1)c1ccc2c(c1)c(-c1cccc(Cl)c1)cc(=O)n2C [tipifarnib]
How it was run: as §1

[4] = compound: NC(=O)Nc1cc(-c2cccc(F)c2)sc1C(=O)N[C@H]1CCCNC1
How it was run: as §1

[5] = compound: NC(=O)c1cnc(N[C@@H]2CCCC[C@@H]2N)nc1Nc1cccc(-n2nccn2)c1
How it was run: as §1

[6] = compound: NC1(c2ccc(-c3nc4ccn5c(=O)[nH]nc5c4cc3-c3ccccc3)cc2)CCC1
How it was run: as §1

Measured: log2 fold change

PSMC2 (UniProt P35998)
inactive: nilotinib 0.009 | [1] 0.011 | dasatinib 0.053 | [2] 0.01 | [3] 0.054 | quisinostat 0.003 | tipifarnib 0.024 | [4] 0.021 | [5] 0.007 | [6] -0.011

PTPN9 (UniProt P43378)
inactive: nilotinib -0.189 | [1] 0.068 | dasatinib -0.008 | [2] -0.058 | [3] -0.069 | quisinostat 0.028 | tipifarnib 0.015 | [4] 0.05 | [5] 0.056 | [6] 0.006

PSMA7 (UniProt O14818)
inactive: nilotinib 0.02 | [1] -0.005 | dasatinib 0.043 | [2] 0.009 | [3] -0.036 | quisinostat 0.036 | tipifarnib 0.015 | [4] -0.008 | [5] -0.001 | [6] 0.029

PRRC2A (UniProt P48634)
inactive: nilotinib -0.044 | [1] 0.01 | dasatinib 0.004 | [2] 0.002 | [3] -0.003 | quisinostat 0.015 | tipifarnib -0.036 | [4] 0.059 | [5] -0.011 | [6] 0.02

PTRH2 (UniProt Q9Y3E5)
inactive: nilotinib 0.007 | [1] 0.043 | dasatinib 0.028 | [2] 0.031 | [3] -0.012 | quisinostat -0.147 | tipifarnib 0.004 | [4] 0.024 | [5] 0.02 | [6] 0.026

PTPA isoform 2 (UniProt Q15257)
inactive: nilotinib 0.011 | [1] -0.009 | dasatinib 0.013 | [2] 0.04 | [3] 0.001 | quisinostat 0.038 | tipifarnib 0.012 | [4] -0.004 | [5] -0.015 | [6] -0.003

PTMA (UniProt P06454)
inactive: nilotinib 0.008 | [1] -0.046 | dasatinib 0.056 | [2] 0.019 | [3] -0.025 | quisinostat 0.047 | tipifarnib 0.045 | [4] 0.017 | [5] 0.032 | [6] -0.006

PUM3 (UniProt Q15397)
inactive: nilotinib 0.031 | [1] 0.014 | dasatinib -0.001 | [2] -0.002 | [3] 0.069 | quisinostat 0.03 | tipifarnib -0.047 | [4] 0.056 | [5] -0.001 | [6] -0.063

PTGS1 isoform 6 (UniProt P23219)
inactive: nilotinib 0.021 | [1] 0.058 | dasatinib 0.034 | [2] 0.043 | [3] 0.053 | quisinostat -0.04 | tipifarnib -0.039 | [4] 0.022 | [5] -0.008 | [6] 0.001

PUS7L (UniProt Q9H0K6)
inactive: nilotinib -0.06 | [1] 0.022 | dasatinib 0.004 | [2] 0 | [3] -0.004 | quisinostat 0.019 | tipifarnib 0.027 | [4] 0.005 | [5] -0.003 | [6] -0.001

PTPRC (UniProt P08575)
inactive: nilotinib -0.026 | [1] -0.024 | dasatinib 0.014 | [2] -0.013 | [3] 0.027 | quisinostat -0.039 | tipifarnib 0.002 | [4] -0.002 | [5] 0.001 | [6] 0

PTPN7 isoform 3 (UniProt P35236)
inactive: nilotinib -0.03 | [1] 0.017 | dasatinib -0.088 | [2] -0.021 | [3] 0.064 | quisinostat 0.008 | tipifarnib 0.054 | [4] -0.006 | [5] -0.015 | [6] -0.043

PSMD11 (UniProt O00231)
inactive: nilotinib 0.017 | [1] -0.016 | dasatinib -0.013 | [2] 0.01 | [3] 0.029 | quisinostat 0.094 | tipifarnib 0.001 | [4] 0.013 | [5] -0.002 | [6] 0.023

PSIP1 (UniProt O75475)
inactive: nilotinib 0.051 | [1] 0.013 | dasatinib -0.024 | [2] 0.057 | [3] 0.025 | quisinostat -0.055 | tipifarnib -0.008 | [4] -0.018 | [5] 0 | [6] 0.001

PSPH (UniProt P78330)
inactive: nilotinib -0.023 | [1] -0.01 | dasatinib 0.022 | [2] -0.008 | [3] -0.012 | quisinostat -0.01 | tipifarnib -0.013 | [4] -0.01 | [5] 0.01 | [6] 0.008

PUS1 (UniProt Q9Y606)
inactive: nilotinib 0.005 | [1] -0.042 | dasatinib -0.01 | [2] 0.01 | [3] 0.018 | quisinostat -0.058 | tipifarnib 0.018 | [4] 0.043 | [5] 0.036 | [6] -0.023

PSMB2 (UniProt P49721)
inactive: nilotinib 0.059 | [1] -0.011 | dasatinib 0.022 | [2] 0.024 | [3] -0.06 | quisinostat 0.001 | tipifarnib 0.001 | [4] -0.066 | [5] -0.021 | [6] 0.005

PTPMT1 (UniProt Q8WUK0)
inactive: nilotinib 0.037 | [1] 0.147 | dasatinib -0.055 | [2] -0.124 | [3] 0.056 | quisinostat -0.037 | tipifarnib -0.109 | [4] 0.174 | [5] -0.01 | [6] -0.056

PSMD14 (UniProt O00487)
inactive: nilotinib -0.025 | [1] 0.022 | dasatinib -0.005 | [2] -0.006 | [3] 0.008 | quisinostat 0.025 | tipifarnib 0.051 | [4] 0.012 | [5] 0.021 | [6] 0.021

PSMB3 (UniProt P49720)
inactive: nilotinib 0.042 | [1] -0.011 | dasatinib 0.003 | [2] 0.01 | [3] 0.002 | quisinostat 0.012 | tipifarnib -0.028 | [4] -0.023 | [5] -0.007 | [6] -0.006

PSMD3 (UniProt O43242)
inactive: nilotinib 0.006 | [1] -0.01 | dasatinib -0.007 | [2] -0.002 | [3] -0.008 | quisinostat 0.023 | tipifarnib 0.023 | [4] 0.006 | [5] -0.01 | [6] -0.004

PRUNE2 isoform 3 (UniProt Q8WUY3)
inactive: nilotinib 0.028 | [1] 0.054 | dasatinib 0.004 | [2] -0.018 | [3] -0.009 | quisinostat -0.019 | tipifarnib 0.093 | [4] -0.01 | [5] 0.079 | [6] -0.032

PTDSS2 (UniProt Q9BVG9)
inactive: nilotinib -0.003 | [1] 0.012 | dasatinib -0.072 | [2] -0.019 | [3] 0.011 | quisinostat 0.007 | tipifarnib -0.146 | [4] 0.042 | [5] -0.011 | [6] -0.001

PSMA4 (UniProt P25789)
inactive: nilotinib 0.01 | [1] 0.009 | dasatinib -0.003 | [2] 0.016 | [3] 0.011 | quisinostat -0.024 | tipifarnib 0.003 | [4] -0.004 | [5] -0.004 | [6] -0.006

PRR14L (UniProt Q5THK1)
inactive: nilotinib 0.05 | [1] -0.008 | dasatinib 0.028 | [2] 0.011 | [3] -0.006 | quisinostat -0.013 | tipifarnib 0.075 | [4] 0.018 | [6] -0.155

PSMB4 (UniProt P28070)
inactive: nilotinib 0.019 | [1] 0 | dasatinib -0.005 | [2] 0.038 | [3] -0.007 | quisinostat -0.031 | tipifarnib -0.001 | [4] -0.001 | [5] -0.028 | [6] -0.029

PSMG4 isoform 2 (UniProt Q5JS54)
inactive: nilotinib 0.039 | [1] 0.006 | dasatinib 0.017 | [2] 0.134 | [3] -0.009 | quisinostat -0.073 | tipifarnib -0.018 | [4] -0.056 | [5] -0.054 | [6] 0.007

PRR3 (UniProt P79522)
inactive: nilotinib -0.107 | [1] -0.085 | [2] -0.074 | quisinostat -0.12 | tipifarnib 0.077 | [4] 0.095 | [5] -0.057

PTTG1 (UniProt O95997)
inactive: nilotinib 0.073 | [1] 0.05 | dasatinib -0.017 | [2] -0.017 | [3] 0.009 | quisinostat -0.074 | tipifarnib 0.019 | [4] 0.019 | [5] 0.025 | [6] -0.032

PSMD4 (UniProt P55036)
inactive: nilotinib 0.016 | [1] -0.01 | dasatinib -0.018 | [2] 0.017 | [3] -0.014 | quisinostat -0.011 | tipifarnib 0.003 | [4] -0.022 | [5] -0.002 | [6] 0.001

PSMA3 (UniProt P25788)
inactive: nilotinib 0.014 | [1] -0.002 | dasatinib 0.006 | [2] -0.021 | [3] 0.004 | quisinostat 0.05 | tipifarnib 0.029 | [4] -0.025 | [5] -0.015 | [6] 0.018

PSMD13 (UniProt Q9UNM6)
inactive: nilotinib 0.001 | [1] 0 | dasatinib -0.036 | [2] -0.005 | [3] 0.022 | quisinostat 0 | tipifarnib -0.001 | [4] -0.012 | [5] 0.001 | [6] 0.024

2 records picked at random from those above:
PUS7L (UniProt Q9H0K6)
inactive: nilotinib -0.06 | [1] 0.022 | dasatinib 0.004 | [2] 0 | [3] -0.004 | quisinostat 0.019 | tipifarnib 0.027 | [4] 0.005 | [5] -0.003 | [6] -0.001

PTPA isoform 2 (UniProt Q15257)
inactive: nilotinib 0.011 | [1] -0.009 | dasatinib 0.013 | [2] 0.04 | [3] 0.001 | quisinostat 0.038 | tipifarnib 0.012 | [4] -0.004 | [5] -0.015 | [6] -0.003

Next part:

PSAP isoform 3 (UniProt P07602)
inactive: nilotinib -0.04 | [1] -0.012 | dasatinib 0.005 | [2] -0.062 | [3] -0.009 | quisinostat 0.023 | tipifarnib 0.033 | [4] -0.018 | [5] -0.02 | [6] 0.033
